Experimental data taken from article PMC4100136.
No constants are given. Whether binding was seen depends on the method and setting. Binding can be weak; no strength is given.

What was measured:
[1] = biological target: ThbZIP1 (Tamarix hispida) (UniProt C0LQL1); experiment: two-hybrid; ThbZIP1 in pGBKT7 (GAL4 DNA-binding domain) as bait, ThbZIP1 and the other five ThbZIPs in pGADT7 as prey; yeast grown on SD/-Trp-Leu and SD/-Ade-Trp-Leu/-His/X-α-Gal
[2] = biological target: ThbZIP2 (Tamarix hispida) (UniProt I7CU82); experiment: two-hybrid; ThbZIP1 in pGADT7-Rec2 as prey, the other ThbZIPs in pGBKT7 (GAL4 DNA-binding domain) as baits; Y2H Gold yeast grown on SD/-Trp-Leu and SD/-Ade-Trp-Leu/-His/X-α-Gal
[3] = biological target: ThbZIP4 (Tamarix hispida) (UniProt I7C781); experiment: as above
[4] = biological target: ThbZIP7 (Tamarix hispida) (UniProt I7D4A7); experiment: as above

## ThbZIP7 (from UniProt I7D4A7)
[1]
  binding: binds

## ThbZIP4 (from UniProt I7C781)
[1]
  binding: binds

## ThbZIP2 (from UniProt I7CU82)
[1]
  binding: binds

## ThbZIP1 (from UniProt C0LQL1)
[2]
  binding: binds
[3]
  binding: binds
[4]
  binding: binds
